Results published in PubChem BioAssay AID588632 (Broad Institute, 2011).
This list was built around the results that the source calls inconclusive (neither active nor inactive); the mix of calls is not that of the screen. The source made the active and inactive calls.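 Rule for the calls: active = compounds lowering signal with fitted half-maximal concentration within ten times the top tested dose in every test run; inconclusive = test runs disagree, or a run had a weak flat or poor fit; inactive = every test run inactive.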

Protein sequences, listed by entry. Tags and fused reporters are not part of them. Lines headed by an entry give the natural chain unless they say otherwise; changes in a name come on top.
UniProt Q9BYT3: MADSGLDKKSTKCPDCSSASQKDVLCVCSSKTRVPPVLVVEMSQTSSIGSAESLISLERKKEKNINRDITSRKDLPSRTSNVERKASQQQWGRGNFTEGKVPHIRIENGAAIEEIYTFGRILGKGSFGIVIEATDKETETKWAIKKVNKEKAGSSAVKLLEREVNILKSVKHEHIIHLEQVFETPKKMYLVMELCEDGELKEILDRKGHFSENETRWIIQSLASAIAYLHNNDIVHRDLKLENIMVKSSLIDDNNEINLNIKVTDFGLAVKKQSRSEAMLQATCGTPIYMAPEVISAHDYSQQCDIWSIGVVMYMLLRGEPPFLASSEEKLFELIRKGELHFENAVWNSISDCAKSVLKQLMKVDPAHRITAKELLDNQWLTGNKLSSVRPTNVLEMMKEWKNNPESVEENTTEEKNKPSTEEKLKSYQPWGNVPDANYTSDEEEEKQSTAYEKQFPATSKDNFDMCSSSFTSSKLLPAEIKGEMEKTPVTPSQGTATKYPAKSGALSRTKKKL

Molecular target: Serine/threonine-protein kinase 33 (Homo sapiens) (UniProt Q9BYT3)
Experiment: STK33 kinase inhibitors, potency, dose response, biochemical, ADP-Glo luminescence, dry powder (AID 588632)
Settings: purified STK33, MBP phosphorylation; at 10 µM (top of the series)

Row | Compound | activity change, negative = inhibition
1 | CCC(CO)Oc1cc(NC(=O)c2ccccc2[N+](=O)[O-])c2ncn(C(C)C)c2c1 (stereo not given) | inconclusive: -25%
2 | CCC(CO)Oc1cc(NC(=O)c2ccccc2Cl)c2ncn(C(C)C)c2c1 (stereo not given) | inactive: -33.3%
3 | CCC(CO)Oc1cc(NC(=O)c2ccc3ccccc3c2)c2ncn(C(C)C)c2c1 (stereo not given) | inconclusive: -43.1%
4 | CCC(CO)Oc1cc(NC(=O)Cc2ccccc2)c2ncn(C(C)C)c2c1 (stereo not given) | inconclusive: -2.94%
5 | COc1cc(NCc2ccccc2)c2ncn(C(C)C)c2c1 | inactive: -20.6%
